Measurements reported in PubChem BioAssay AID1259254 (NCATS, 2017).

- Test: 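Genome-wide screen for genes that prevent DNA re-replication in cancer cells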 (primary screen)
- Cell system: human HCT116 colorectal cancer cells
- Reagent: single siRNA against human genes
- Timing: 3 days
- Measurement: 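Nuclei stained with Hoechst and imaged; cell-cycle phase assigned by DNA content; G2 share scaled per plate, non-targeting siRNA 0%, GMNN siRNA 100%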
- Direction: G2 robust z-score and G2 cells, % of GMNN control: higher = more G2 cells, more excess DNA replication
- Rule for the call: 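An siRNA counts as active if its G2 robust z-score lies at least 5 MADs above the screen median; here such calls match roughly 38% of GMNN control or more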
Shown is a random part of about 59,000 reagents. About 1,550 of them (2.6%) count as active. 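G2 share is only a proxy for re-replication; each gene was hit by three separate siRNAs, and active genes were retested.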 Reagents against one gene are numbered here. Not all columns of the deposit are shown. The record does not give: the amount of reagent.

SLC1A4 #1
- G2 robust z-score: 3.94
- G2 cells, % of GMNN control: 30.7
- Call: inactive

SLC1A4 #2
- G2 robust z-score: -1.02
- G2 cells, % of GMNN control: -4.22
- Call: inactive

SLC1A4 #3
- G2 robust z-score: -0.934
- G2 cells, % of GMNN control: -3.6
- Call: inactive

COX10 #1
- G2 robust z-score: 4.64
- G2 cells, % of GMNN control: 35.6
- Call: inactive

COX10 #2
- G2 robust z-score: 1.31
- G2 cells, % of GMNN control: 12.2
- Call: inactive

COX10 #3
- G2 robust z-score: 1.91
- G2 cells, % of GMNN control: 16.4
- Call: inactive

ZFP91 (ZFP91 zinc finger protein, atypical E3 ubiquitin ligase) #1
- G2 robust z-score: -0.0388
- G2 cells, % of GMNN control: 2.69
- Call: inactive

ZFP91 (ZFP91 zinc finger protein, atypical E3 ubiquitin ligase) #2
- G2 robust z-score: 4.46
- G2 cells, % of GMNN control: 34.3
- Call: inactive

ZFP91 (ZFP91 zinc finger protein, atypical E3 ubiquitin ligase) #3
- G2 robust z-score: -0.878
- G2 cells, % of GMNN control: -3.21
- Call: inactive

HNRNPA0 (heterogeneous nuclear ribonucleoprotein A0) #1
- G2 robust z-score: -0.572
- G2 cells, % of GMNN control: -1.06
- Call: inactive

HNRNPA0 (heterogeneous nuclear ribonucleoprotein A0) #2
- G2 robust z-score: -0.755
- G2 cells, % of GMNN control: -2.34
- Call: inactive

HNRNPA0 (heterogeneous nuclear ribonucleoprotein A0) #3
- G2 robust z-score: -1.06
- G2 cells, % of GMNN control: -4.48
- Call: inactive

SERPINB9 (serpin family B member 9) #1
- G2 robust z-score: -0.569
- G2 cells, % of GMNN control: -1.04
- Call: inactive

SERPINB9 (serpin family B member 9) #2
- G2 robust z-score: -0.123
- G2 cells, % of GMNN control: 2.1
- Call: inactive

SERPINB9 (serpin family B member 9) #3
- G2 robust z-score: -0.602
- G2 cells, % of GMNN control: -1.27
- Call: inactive

ZNF320 (zinc finger protein 320) #1
- G2 robust z-score: 2.13
- G2 cells, % of GMNN control: 18
- Call: inactive

ZNF320 (zinc finger protein 320) #2
- G2 robust z-score: -0.553
- G2 cells, % of GMNN control: -0.925
- Call: inactive

ZNF320 (zinc finger protein 320) #3
- G2 robust z-score: 0.265
- G2 cells, % of GMNN control: 4.83
- Call: inactive

PTBP1 (polypyrimidine tract binding protein 1) #1
- G2 robust z-score: -1.34
- G2 cells, % of GMNN control: -6.48
- Call: inactive

PTBP1 (polypyrimidine tract binding protein 1) #2
- G2 robust z-score: -0.664
- G2 cells, % of GMNN control: -1.71
- Call: inactive

PTBP1 (polypyrimidine tract binding protein 1) #3
- G2 robust z-score: 1.22
- G2 cells, % of GMNN control: 11.5
- Call: inactive

HRAS (HRas proto-oncogene, GTPase) #1
- G2 robust z-score: -0.0275
- G2 cells, % of GMNN control: 2.77
- Call: inactive

HRAS (HRas proto-oncogene, GTPase) #2
- G2 robust z-score: 0.0655
- G2 cells, % of GMNN control: 3.43
- Call: inactive

HRAS (HRas proto-oncogene, GTPase) #3
- G2 robust z-score: 1.22
- G2 cells, % of GMNN control: 11.5
- Call: inactive

In a second layout: 3 of the entries above.
{"Target gene": "SERPINB9 (serpin family B member 9)", "reagent no.": 3, "G2 robust z-score": -0.602, "G2 cells, % of GMNN control": -1.27, "Call": "inactive"}
{"Target gene": "ZNF320 (zinc finger protein 320)", "reagent no.": 1, "G2 robust z-score": 2.13, "G2 cells, % of GMNN control": 18, "Call": "inactive"}
{"Target gene": "ZNF320 (zinc finger protein 320)", "reagent no.": 2, "G2 robust z-score": -0.553, "G2 cells, % of GMNN control": -0.925, "Call": "inactive"}
